{"sequences": {"note": "Chains of the proteins cited; added tags and fusions are not shown. Lines headed by an entry give the natural chain unless they say otherwise; changes in a name come on top.", "UniProt P53814": "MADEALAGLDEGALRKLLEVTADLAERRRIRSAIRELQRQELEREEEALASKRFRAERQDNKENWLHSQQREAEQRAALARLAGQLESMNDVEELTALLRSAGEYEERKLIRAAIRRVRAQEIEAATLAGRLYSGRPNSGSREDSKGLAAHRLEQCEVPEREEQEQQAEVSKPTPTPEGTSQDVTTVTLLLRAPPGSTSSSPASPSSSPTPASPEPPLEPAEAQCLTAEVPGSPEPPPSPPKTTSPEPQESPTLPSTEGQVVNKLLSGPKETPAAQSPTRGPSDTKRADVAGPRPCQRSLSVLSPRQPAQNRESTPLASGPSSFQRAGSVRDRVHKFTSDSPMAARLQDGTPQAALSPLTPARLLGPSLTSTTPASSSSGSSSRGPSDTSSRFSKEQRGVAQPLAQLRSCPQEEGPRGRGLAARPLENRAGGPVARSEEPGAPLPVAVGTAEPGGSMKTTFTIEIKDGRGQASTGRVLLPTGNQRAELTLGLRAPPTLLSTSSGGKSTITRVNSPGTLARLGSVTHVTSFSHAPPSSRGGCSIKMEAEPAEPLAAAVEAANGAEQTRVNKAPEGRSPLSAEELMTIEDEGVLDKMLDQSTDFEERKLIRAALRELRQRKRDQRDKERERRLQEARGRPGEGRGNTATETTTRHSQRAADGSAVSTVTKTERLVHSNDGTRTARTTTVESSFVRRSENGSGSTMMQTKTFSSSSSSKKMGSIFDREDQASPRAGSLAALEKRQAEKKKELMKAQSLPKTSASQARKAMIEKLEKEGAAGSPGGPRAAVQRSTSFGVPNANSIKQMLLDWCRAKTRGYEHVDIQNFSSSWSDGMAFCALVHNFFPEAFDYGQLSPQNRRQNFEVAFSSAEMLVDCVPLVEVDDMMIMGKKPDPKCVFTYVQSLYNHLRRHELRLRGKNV", "UniProt Q969G3, whole entry": "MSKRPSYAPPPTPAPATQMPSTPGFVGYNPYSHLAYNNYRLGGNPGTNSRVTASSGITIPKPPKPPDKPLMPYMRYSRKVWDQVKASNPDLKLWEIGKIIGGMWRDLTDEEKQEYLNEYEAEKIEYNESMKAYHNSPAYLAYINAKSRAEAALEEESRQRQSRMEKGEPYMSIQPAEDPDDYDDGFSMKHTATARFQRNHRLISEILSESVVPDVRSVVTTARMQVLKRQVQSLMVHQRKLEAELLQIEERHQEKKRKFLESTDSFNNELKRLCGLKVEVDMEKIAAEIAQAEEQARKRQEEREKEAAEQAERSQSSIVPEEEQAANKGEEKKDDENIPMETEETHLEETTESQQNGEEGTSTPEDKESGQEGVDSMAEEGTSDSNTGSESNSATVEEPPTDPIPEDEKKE", "UniProt P09234, whole entry": "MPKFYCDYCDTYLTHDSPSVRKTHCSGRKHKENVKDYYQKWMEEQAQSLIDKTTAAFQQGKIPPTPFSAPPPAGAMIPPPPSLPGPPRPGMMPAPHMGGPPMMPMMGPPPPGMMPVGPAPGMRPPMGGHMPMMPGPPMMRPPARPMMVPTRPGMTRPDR", "UniProt O15270": "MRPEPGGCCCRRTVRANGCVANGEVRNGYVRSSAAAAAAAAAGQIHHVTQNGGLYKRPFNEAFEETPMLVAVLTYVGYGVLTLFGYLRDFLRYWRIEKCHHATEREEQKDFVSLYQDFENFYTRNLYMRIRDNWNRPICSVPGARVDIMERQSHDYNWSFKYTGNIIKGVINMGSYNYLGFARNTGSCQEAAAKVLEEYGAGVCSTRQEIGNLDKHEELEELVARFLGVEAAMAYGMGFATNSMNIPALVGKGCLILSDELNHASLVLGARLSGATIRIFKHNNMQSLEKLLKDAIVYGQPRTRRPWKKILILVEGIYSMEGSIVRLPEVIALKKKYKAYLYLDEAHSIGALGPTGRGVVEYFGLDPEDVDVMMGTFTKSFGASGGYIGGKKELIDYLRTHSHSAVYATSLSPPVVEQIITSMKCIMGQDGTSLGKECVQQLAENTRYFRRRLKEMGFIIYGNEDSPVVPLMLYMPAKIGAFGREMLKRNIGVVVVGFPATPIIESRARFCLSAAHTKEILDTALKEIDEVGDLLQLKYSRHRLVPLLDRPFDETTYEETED", "UniProt Q9Y2D8": "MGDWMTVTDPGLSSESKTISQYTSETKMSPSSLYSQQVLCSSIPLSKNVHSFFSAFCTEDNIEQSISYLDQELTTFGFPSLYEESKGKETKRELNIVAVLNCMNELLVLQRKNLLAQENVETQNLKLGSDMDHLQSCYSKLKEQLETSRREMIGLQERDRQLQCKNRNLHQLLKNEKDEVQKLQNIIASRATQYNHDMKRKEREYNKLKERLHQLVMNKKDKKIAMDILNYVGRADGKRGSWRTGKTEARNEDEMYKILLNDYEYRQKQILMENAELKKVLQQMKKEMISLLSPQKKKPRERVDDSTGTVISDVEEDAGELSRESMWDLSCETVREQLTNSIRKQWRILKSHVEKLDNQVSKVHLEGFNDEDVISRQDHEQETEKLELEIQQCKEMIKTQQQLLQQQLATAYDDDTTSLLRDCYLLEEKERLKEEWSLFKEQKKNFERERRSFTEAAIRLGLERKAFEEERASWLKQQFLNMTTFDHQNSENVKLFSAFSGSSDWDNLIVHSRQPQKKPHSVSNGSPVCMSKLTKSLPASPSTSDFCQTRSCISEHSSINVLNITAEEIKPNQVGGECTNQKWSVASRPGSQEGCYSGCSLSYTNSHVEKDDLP", "UniProt O60906": "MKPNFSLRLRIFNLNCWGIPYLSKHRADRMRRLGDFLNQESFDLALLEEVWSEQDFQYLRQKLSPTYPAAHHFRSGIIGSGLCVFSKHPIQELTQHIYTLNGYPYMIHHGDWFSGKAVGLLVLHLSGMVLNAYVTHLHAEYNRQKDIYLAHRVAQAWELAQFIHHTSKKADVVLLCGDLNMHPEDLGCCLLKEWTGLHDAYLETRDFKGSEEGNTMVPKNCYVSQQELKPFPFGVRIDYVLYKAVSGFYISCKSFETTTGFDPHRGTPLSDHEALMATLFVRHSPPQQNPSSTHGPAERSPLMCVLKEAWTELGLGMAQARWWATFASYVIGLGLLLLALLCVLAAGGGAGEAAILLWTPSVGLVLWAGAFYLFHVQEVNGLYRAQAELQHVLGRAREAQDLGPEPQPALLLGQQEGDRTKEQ", "UniProt O95926": "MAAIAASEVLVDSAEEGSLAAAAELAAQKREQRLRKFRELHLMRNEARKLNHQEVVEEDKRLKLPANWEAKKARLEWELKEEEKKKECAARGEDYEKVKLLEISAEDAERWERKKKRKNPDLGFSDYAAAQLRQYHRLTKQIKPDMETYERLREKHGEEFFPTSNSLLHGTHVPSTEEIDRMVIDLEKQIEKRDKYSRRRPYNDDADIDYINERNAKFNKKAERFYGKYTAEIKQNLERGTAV", "UniProt Q13190": "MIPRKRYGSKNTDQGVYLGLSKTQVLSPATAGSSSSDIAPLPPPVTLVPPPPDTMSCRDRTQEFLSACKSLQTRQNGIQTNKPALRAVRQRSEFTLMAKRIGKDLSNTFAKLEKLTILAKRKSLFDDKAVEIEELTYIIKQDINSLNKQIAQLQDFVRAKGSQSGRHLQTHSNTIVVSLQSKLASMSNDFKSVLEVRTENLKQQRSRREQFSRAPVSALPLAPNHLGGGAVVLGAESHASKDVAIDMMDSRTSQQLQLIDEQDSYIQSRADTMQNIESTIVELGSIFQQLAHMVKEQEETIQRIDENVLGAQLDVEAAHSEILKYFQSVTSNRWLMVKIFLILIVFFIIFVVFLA", "UniProt Q9UQ35": "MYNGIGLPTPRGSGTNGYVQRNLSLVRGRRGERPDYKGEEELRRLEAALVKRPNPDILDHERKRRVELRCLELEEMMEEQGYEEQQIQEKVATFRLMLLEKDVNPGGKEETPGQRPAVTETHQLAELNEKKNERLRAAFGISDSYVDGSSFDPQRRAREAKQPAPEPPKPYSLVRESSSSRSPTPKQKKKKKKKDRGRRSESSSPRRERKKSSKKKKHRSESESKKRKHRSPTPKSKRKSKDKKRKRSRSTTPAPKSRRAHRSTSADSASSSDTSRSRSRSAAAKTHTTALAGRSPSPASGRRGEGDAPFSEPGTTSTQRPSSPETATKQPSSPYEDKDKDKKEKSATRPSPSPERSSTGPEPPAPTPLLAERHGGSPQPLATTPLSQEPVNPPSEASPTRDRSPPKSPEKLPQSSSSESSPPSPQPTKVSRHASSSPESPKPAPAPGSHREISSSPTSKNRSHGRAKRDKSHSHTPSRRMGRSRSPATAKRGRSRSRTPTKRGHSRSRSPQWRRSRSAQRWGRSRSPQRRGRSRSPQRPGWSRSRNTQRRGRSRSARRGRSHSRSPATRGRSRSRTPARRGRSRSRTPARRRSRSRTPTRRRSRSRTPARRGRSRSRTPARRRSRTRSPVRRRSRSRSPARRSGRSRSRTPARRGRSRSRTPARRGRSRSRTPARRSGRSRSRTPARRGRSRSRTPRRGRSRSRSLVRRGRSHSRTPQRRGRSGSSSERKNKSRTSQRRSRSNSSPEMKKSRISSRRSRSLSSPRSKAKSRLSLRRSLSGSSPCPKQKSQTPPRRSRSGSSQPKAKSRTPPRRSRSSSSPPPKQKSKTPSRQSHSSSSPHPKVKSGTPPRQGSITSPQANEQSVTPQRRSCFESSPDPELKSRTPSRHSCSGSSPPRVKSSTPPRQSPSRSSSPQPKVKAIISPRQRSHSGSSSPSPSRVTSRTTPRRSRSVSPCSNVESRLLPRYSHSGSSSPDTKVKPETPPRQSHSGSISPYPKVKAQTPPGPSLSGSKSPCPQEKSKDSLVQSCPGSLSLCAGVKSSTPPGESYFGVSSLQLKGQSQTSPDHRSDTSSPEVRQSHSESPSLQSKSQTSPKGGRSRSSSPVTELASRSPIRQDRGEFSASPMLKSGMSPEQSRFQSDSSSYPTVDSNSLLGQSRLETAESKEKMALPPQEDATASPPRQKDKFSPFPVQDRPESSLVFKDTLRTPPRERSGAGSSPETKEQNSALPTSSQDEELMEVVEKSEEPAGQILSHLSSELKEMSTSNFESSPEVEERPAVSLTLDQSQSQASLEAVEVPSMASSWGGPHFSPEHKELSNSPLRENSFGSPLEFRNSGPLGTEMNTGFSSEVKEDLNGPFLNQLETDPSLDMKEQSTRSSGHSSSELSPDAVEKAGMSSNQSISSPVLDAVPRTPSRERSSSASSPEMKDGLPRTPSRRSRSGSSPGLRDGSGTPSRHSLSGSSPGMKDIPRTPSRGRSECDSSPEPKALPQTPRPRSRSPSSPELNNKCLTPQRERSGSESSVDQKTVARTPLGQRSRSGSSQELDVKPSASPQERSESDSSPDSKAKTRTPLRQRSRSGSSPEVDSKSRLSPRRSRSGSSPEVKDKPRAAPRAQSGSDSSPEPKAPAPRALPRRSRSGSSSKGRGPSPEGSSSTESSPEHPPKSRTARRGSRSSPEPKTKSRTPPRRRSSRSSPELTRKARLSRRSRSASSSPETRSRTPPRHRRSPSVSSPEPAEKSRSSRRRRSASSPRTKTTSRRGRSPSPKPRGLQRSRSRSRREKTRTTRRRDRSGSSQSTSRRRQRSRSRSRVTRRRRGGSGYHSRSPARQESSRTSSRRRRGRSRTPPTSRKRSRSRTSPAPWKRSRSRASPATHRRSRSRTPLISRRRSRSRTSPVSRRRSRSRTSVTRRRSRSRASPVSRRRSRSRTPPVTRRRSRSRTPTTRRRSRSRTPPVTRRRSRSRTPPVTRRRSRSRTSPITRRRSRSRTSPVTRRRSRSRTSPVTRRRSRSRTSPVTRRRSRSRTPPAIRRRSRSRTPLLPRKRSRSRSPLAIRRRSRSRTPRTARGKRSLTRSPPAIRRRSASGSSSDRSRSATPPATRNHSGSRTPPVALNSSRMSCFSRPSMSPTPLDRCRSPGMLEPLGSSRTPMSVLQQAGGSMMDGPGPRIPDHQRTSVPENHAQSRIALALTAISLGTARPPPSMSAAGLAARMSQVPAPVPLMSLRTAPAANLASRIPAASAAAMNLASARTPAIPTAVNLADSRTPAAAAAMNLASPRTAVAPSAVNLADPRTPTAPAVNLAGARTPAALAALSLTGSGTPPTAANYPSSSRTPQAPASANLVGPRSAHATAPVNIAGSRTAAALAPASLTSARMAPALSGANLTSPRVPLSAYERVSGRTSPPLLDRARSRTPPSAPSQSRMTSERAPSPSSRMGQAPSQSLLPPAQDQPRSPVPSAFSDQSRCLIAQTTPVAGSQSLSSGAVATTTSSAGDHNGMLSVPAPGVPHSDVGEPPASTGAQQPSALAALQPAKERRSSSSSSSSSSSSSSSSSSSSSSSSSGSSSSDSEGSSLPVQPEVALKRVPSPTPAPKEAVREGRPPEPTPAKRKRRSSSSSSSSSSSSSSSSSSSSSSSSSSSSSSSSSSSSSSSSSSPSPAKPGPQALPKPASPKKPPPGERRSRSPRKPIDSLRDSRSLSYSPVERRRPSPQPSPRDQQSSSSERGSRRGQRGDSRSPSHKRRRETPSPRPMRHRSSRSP"}, "source": "the supplement of paper PMC7666118", "note": "The other results are listed elsewhere or left out.", "data": [{"compound": "COc1ccc(Cn2ccc3ccc(C(=O)NO)cc32)cc1", "experiment": "dose-dependent thermal stabilisation call (2D-TPP, DLPTP, 10% FDR) (binary (1 = stabilised)); higher = stabilised by the compound", "details": "system: HL-60 intact cells; concentration range 0.04-10 µM", "values": [{"target": "SNX4 (UniProt O95219)", "dose-dependent thermal stabilisation call": "inactive: 0"}, {"target": "SMTN (UniProt P53814)", "dose-dependent thermal stabilisation call": "inactive: 0"}, {"target": "SNX2 (UniProt O60749)", "dose-dependent thermal stabilisation call": "inactive: 0"}, {"target": "SMARCE1 (UniProt Q969G3)", "dose-dependent thermal stabilisation call": "inactive: 0"}, {"target": "SUB1 (UniProt P53999)", "dose-dependent thermal stabilisation call": "inactive: 0"}, {"target": "SNX20 (UniProt Q7Z614)", "dose-dependent thermal stabilisation call": "inactive: 0"}, {"target": "SPI1 (UniProt P17947)", "dose-dependent thermal stabilisation call": "inactive: 0"}, {"target": "SNRPC (UniProt P09234)", "dose-dependent thermal stabilisation call": "inactive: 0"}, {"target": "ST3GAL2 (UniProt Q16842)", "dose-dependent thermal stabilisation call": "inactive: 0"}, {"target": "SRP09", "dose-dependent thermal stabilisation call": "inactive: 0"}, {"target": "SPG20 (UniProt Q8N0X7)", "dose-dependent thermal stabilisation call": "inactive: 0"}, {"target": "SPTLC2 (UniProt O15270)", "dose-dependent thermal stabilisation call": "inactive: 0"}, {"target": "STT3A (UniProt P46977)", "dose-dependent thermal stabilisation call": "inactive: 0"}, {"target": "STIM1 (UniProt Q13586)", "dose-dependent thermal stabilisation call": "inactive: 0"}, {"target": "SMYD3 (UniProt Q9H7B4)", "dose-dependent thermal stabilisation call": "inactive: 0"}, {"target": "STAG2 (UniProt Q8N3U4)", "dose-dependent thermal stabilisation call": "inactive: 0"}, {"target": "STIP1 (UniProt P31948)", "dose-dependent thermal stabilisation call": "inactive: 0"}, {"target": "SLCO4A1 (UniProt Q96BD0)", "dose-dependent thermal stabilisation call": "inactive: 0"}, {"target": "STARD3NL (UniProt O95772)", "dose-dependent thermal stabilisation call": "inactive: 0"}, {"target": "SNRNP35 (UniProt Q16560)", "dose-dependent thermal stabilisation call": "inactive: 0"}, {"target": "STRN3 (UniProt Q13033)", "dose-dependent thermal stabilisation call": "inactive: 0"}, {"target": "SUPT6H (UniProt Q7KZ85)", "dose-dependent thermal stabilisation call": "inactive: 0"}, {"target": "TAF1C (UniProt Q15572)", "dose-dependent thermal stabilisation call": "inactive: 0"}, {"target": "SMCR8 (UniProt Q8TEV9)", "dose-dependent thermal stabilisation call": "inactive: 0"}, {"target": "STOML2 (UniProt Q9UJZ1)", "dose-dependent thermal stabilisation call": "inactive: 0"}, {"target": "SSX2IP (UniProt Q9Y2D8)", "dose-dependent thermal stabilisation call": "inactive: 0"}, {"target": "SPAG9 (UniProt O60271)", "dose-dependent thermal stabilisation call": "inactive: 0"}, {"target": "SMPD2 (UniProt O60906)", "dose-dependent thermal stabilisation call": "inactive: 0"}, {"target": "SMYD5 (UniProt Q6GMV2)", "dose-dependent thermal stabilisation call": "inactive: 0"}, {"target": "STX12 (UniProt Q86Y82)", "dose-dependent thermal stabilisation call": "inactive: 0"}, {"target": "STRN (UniProt O43815)", "dose-dependent thermal stabilisation call": "inactive: 0"}, {"target": "SYF2 (UniProt O95926)", "dose-dependent thermal stabilisation call": "inactive: 0"}, {"target": "TAF6L (UniProt Q9Y6J9)", "dose-dependent thermal stabilisation call": "inactive: 0"}, {"target": "SRRM1 (UniProt Q8IYB3)", "dose-dependent thermal stabilisation call": "inactive: 0"}, {"target": "STX5 (UniProt Q13190)", "dose-dependent thermal stabilisation call": "inactive: 0"}, {"target": "SLFN13 (UniProt Q68D06)", "dose-dependent thermal stabilisation call": "inactive: 0"}, {"target": "SRRM2 (UniProt Q9UQ35)", "dose-dependent thermal stabilisation call": "inactive: 0"}]}]}
